Source: PubChem BioAssay AID1259259 (Sanger Institute, 2017)

- Assay: 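Kinome siRNA search for kinases essential alone or combined with trametinib, cetuximab or BYL719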 (primary screen)
- Cell system: SW1463 human colorectal cancer cells
- Reagent: siRNA pool against human genes
- Conditions: DMSO vehicle, or one anchor drug: BYL719 at 1 µM, cetuximab at 5 µg/ml, or trametinib at 10 nM
- Detection: 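Viability as fraction of control pool 2 (non-targeting), replicate mean; knock-down robust z-score without any drug; synergy score averaged for each anchor drug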
- Direction: robust z-score, knock-down alone: higher = more viable cells after knock-down; viability, knock-down alone: higher = more viable cells; synergy score with BYL719: higher = stronger synergy (synthetic lethal) with drug
- Call rule: 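a robust z-score under -3 for knock-down with no drug marks the gene as essential, meaning viability loss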
- Meaning of the calls: active = essential: viability loss from knock-down alone; inactive = no change from knock-down alone
In all, the deposit lists 794 reagents; this is an unselected part. Over the whole deposit, 9 (1.1%) are marked active. 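Calls rest on knock-down alone, not drug synergy; viability values seem capped at 1.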 Entries without a mark were called inactive. Not all columns of the deposit are shown. The record does not give: the amount of reagent, the time to read-out.

| gene symbol | robust z-score, knock-down alone | viability, knock-down alone (fraction of control) | synergy score with BYL719 |
| --- | --- | --- | --- |
| PKN2 (protein kinase N2) | -1.49 | 0.832 | 0.0207 |
| MGA (MAX dimerization protein MGA) | 1.13 | 1 | 0.00925 |
| NEK2 (NIMA related kinase 2) | 0.85 | 0.982 | 0.0502 |
| TEC (tec protein tyrosine kinase) | 1.13 | 1 | 0 |
| ETNK2 (ethanolamine kinase 2) | 1.13 | 1 | 0 |
| ATP23 | 1.13 | 1 | 0.134 |
| CRIM1 (cysteine rich transmembrane BMP regulator 1) | -0.116 | 0.92 | 0.0732 |
| RBKS (ribokinase) | 0.645 | 0.969 | -0.031 |
| SIK1 (salt inducible kinase 1) | -0.812 | 0.875 | 0.0167 |
| BMAL1 (basic helix-loop-helix ARNT like 1) | -0.36 | 0.905 | 0.0954 |
| LRRK1 (leucine rich repeat kinase 1) | 1.13 | 1 | 0.0547 |
| MOK (MOK protein kinase) | -0.62 | 0.888 | -0.112 |
| AK3 (adenylate kinase 3) | -0.287 | 0.909 | -0.0424 |
| NEK5 (NIMA related kinase 5) | -0.607 | 0.889 | -0.033 |
| CDK5R2 (cyclin dependent kinase 5 regulatory subunit 2) | 0.984 | 0.991 | 0.0922 |
| STK31 (serine/threonine kinase 31) | 0.268 | 0.945 | 0.0712 |
| MUSK (muscle associated receptor tyrosine kinase) | -1.11 | 0.856 | -0.0262 |
| RPS6KA2 (ribosomal protein S6 kinase A2) | 0.862 | 0.983 | -0.017 |
| LRRK2 (leucine rich repeat kinase 2) | 1.13 | 1 | 0.0186 |
| MATK (megakaryocyte-associated tyrosine kinase) | 1.13 | 1 | 0.0236 |
| PRKG2 (protein kinase cGMP-dependent 2) | -0.24 | 0.912 | -0.0878 |
| DCLK1 (doublecortin like kinase 1) | 0.773 | 0.977 | 0.00929 |
| STK38 (serine/threonine kinase 38) | -0.076 | 0.923 | -0.00581 |
| RAD21 (RAD21 cohesin complex component) | 1.13 | 1 | 0.077 |
| SCYL1 (SCY1 like pseudokinase 1) | 1.13 | 1 | 0.051 |
| ERN1 (endoplasmic reticulum to nucleus signaling 1) | -0.0497 | 0.924 | -0.0615 |
| NAGK (N-acetylglucosamine kinase) | -0.0252 | 0.926 | 0.0905 |
| STK38L (serine/threonine kinase 38 like) | -0.573 | 0.891 | 0.0347 |
| SMG1 | 0.286 | 0.946 | -0.0319 |
| CDK17 (cyclin dependent kinase 17) | 1.13 | 1 | 0 |
| PKN3 (protein kinase N3) | -0.104 | 0.921 | -0.012 |
| CDK13 (cyclin dependent kinase 13) | -0.477 | 0.897 | -0.0445 |
| SIK3 (SIK family kinase 3) | 0.783 | 0.978 | 0.0715 |
| HUS1 (HUS1 checkpoint clamp component) | 1.13 | 1 | 0 |
| ROS1 (ROS proto-oncogene 1, receptor tyrosine kinase) | -0.781 | 0.877 | -0.0989 |
| CAMK4 (calcium/calmodulin dependent protein kinase IV) | 0.823 | 0.981 | -0.0195 |
| ELF3 (E74 like ETS transcription factor 3) | -1.47 | 0.833 | 0.000366 |
| MELK (maternal embryonic leucine zipper kinase) | 0.0314 | 0.93 | -0.0703 |
| RPS6KA3 (ribosomal protein S6 kinase A3) | -1.13 | 0.855 | -0.145 |
| PLK3 (polo like kinase 3) | 1.13 | 1 | 0.0702 |
| NEK7 (NIMA related kinase 7) | 1.13 | 1 | 0 |
| CHEK2 (checkpoint kinase 2) | 0.75 | 0.976 | 0.0263 |
| SRPK3 (SRSF protein kinase 3) | 0.228 | 0.942 | -0.0577 |
| ITPKC (inositol-trisphosphate 3-kinase C) | -0.715 | 0.882 | 0.15 |
| ROCK2 (Rho associated coiled-coil containing protein kinase 2) | -0.606 | 0.889 | 0.0224 |
| MAP2K1 (mitogen-activated protein kinase kinase 1) | -0.0274 | 0.926 | 0.021 |
| TK2 (thymidine kinase 2) | 1.13 | 1 | 0.0178 |
| ACVR1B (activin A receptor type 1B) | 0.535 | 0.962 | -0.036 |
| AURKA (aurora kinase A) | -3.3 (active) | 0.716 | -0.0809 |
| SNRK (SNF related kinase) | -0.157 | 0.918 | 0.0595 |

Only “synergy score with BYL719” (6 entries from above):
SRPK3 (SRSF protein kinase 3) = -0.0577
ITPKC (inositol-trisphosphate 3-kinase C) = 0.15
ROCK2 (Rho associated coiled-coil containing protein kinase 2) = 0.0224
MAP2K1 (mitogen-activated protein kinase kinase 1) = 0.021
TK2 (thymidine kinase 2) = 0.0178
ACVR1B (activin A receptor type 1B) = -0.036
